Experimental data as given in PubChem BioAssay AID330 (DTP/NCI, 2004).
The list shows only some results of the screen, not a fair sample: it gathers tests that were run many times, whatever their T/C, doses with no T/C, and many T/C values between a quarter and a half above the control. Other doses and runs of a compound stand elsewhere. T/C gives the treated animals as a percentage of the vehicle group. Some doses have a count of surviving animals in place of a T/C: the source files T/C as zero there, which appears to mark a toxic dose or a test without result, not a measured value. Some survivor counts are full or nearly so, which does not show that the dose was tolerated: the source hardly ever lists a survival T/C far under the control, and the zero likely stands for such cases as well. Survivors were counted at the toxicity check, usually on the fifth day, unless a day is given; later deaths do not show. Schedules are NCI's codes, taken here to give the interval after Q, in days (D) or hours (H), and the number of doses after X. Some entries were tested several times; the values are given in rising order. For survival time, this PubChem deposit counts one and a half times the control or more as active, and values a quarter to a half above the control carry no call in these data; other NCI protocols may use other cut-offs. Some T/C values are followed by the survivors on the day toxicity was checked, most often the fifth; without a count, all were alive then.

System: P388 leukemia ip, CD2F1 mice, survival T/C
Test: NCI In Vivo Anticancer Drug Screen. Data for tumor model P388 Leukemia (intraperitoneal) in CD2F1 (CDF1) mice
Conditions: T/C endpoint: median survival time, higher T/C = longer survival
[1] = dose: 100.0 mg/kg/injection, schedule: Q01DX005 (ip), vehicle: saline with Tween-80
[2] = dose: 200.0 mg/kg/injection, schedule: Q01DX005 (ip), vehicle: saline with Tween-80
[3] = dose: 25.0 mg/kg/injection, schedule: Q01DX009 (ip), vehicle: saline
[4] = dose: 50.0 mg/kg/injection, schedule: Q01DX005 (ip), vehicle: saline with Tween-80
[5] = dose: 200.0 mg/kg/injection, schedule: Q01DX005 (ip), vehicle: Klucel (hydroxypropylcellulose) (HPC)
[6] = dose: 3.12 mg/kg/injection, schedule: Q01DX009 (ip), vehicle: saline with Tween-80
[7] = dose: 12.5 mg/kg/injection, schedule: Q01DX009 (ip), vehicle: saline with Tween-80
[8] = dose: 50.0 mg/kg/injection, schedule: Q01DX009 (ip), vehicle: saline with Tween-80

Question: With CN=C(N)NN=C(c1ccc(Cl)cc1)c1ccc(Cl)cc1 as the compound, how does the T/C (dose: 25.0 mg/kg/injection, schedule: Q04DX002 (ip), vehicle: saline with Tween-80) read?
Answer: The T/C was 138 % of control.

Question: What about the survivor count (dose: 50.0 mg/kg/injection, schedule: Q04DX002 (ip), vehicle: saline with Tween-80) of the same compound?
Answer: Its survivor count is 2 of 6.

Question: And the survivor count (dose: 100.0 mg/kg/injection, schedule: Q04DX002 (ip), vehicle: saline with Tween-80)?
Answer: Its survivor count is 0 of 6.

Question: Which survivor count [1] does the source give for CC[N+]1=C(C2=NCCc3ccccc32)c2ccccc2CC1 here?
Answer: Its survivor count is 0 of 5.

Question: And the survivor count [2]?
Answer: The survivor count was 0 of 5.

Question: How did the T/C (dose: 5.5 mg/kg/injection, schedule: Q04DX003 (ip), vehicle: saline) turn out when O=P(N1CCCC1)(N1CC1)N1CC1 was run?
Answer: Its T/C is 140 % of control.

Question: And the survivor count [3]?
Answer: The survivor count was 6 of 6.

Question: CCCn1cc2c3c(cccc31)C1C=C(C)CN(C)C1C2 (stereo not given) was tested. Which T/C [4] did it give?
Answer: Its T/C is 100 [5 of 6 alive], 104, 109, 128 % of control.

Question: What about the survivor count [2] of the same compound?
Answer: Its survivor count is 3 of 6.

Question: Which survivor count (dose: 25.0 mg/kg/injection, schedule: Q01DX001 (ip), vehicle: Klucel (hydroxypropylcellulose) (HPC)) does the source give for C(=Nc1ccncc1)c1c[nH]c2ccccc12 here?
Answer: Its survivor count is 0 of 6.

Question: What about the survivor count (dose: 50.0 mg/kg/injection, schedule: Q01DX001 (ip), vehicle: Klucel (hydroxypropylcellulose) (HPC)) of the same compound?
Answer: Its survivor count is 0 of 6 and 2 of 6.

Question: What about the survivor count (dose: 100.0 mg/kg/injection, schedule: Q01DX001 (ip), vehicle: Klucel (hydroxypropylcellulose) (HPC)) of the same compound?
Answer: The survivor count was 0 of 6.

Question: What about the survivor count (dose: 200.0 mg/kg/injection, schedule: Q01DX001 (ip), vehicle: Klucel (hydroxypropylcellulose) (HPC)) of the same compound?
Answer: The survivor count was 0 of 6.

Question: Which results are given for ClC1=CC=c2ccc3c(c2[N-]1)[N-]C(Cl)=CC=3.ClC1=CC=c2ccc3c(c2[N-]1)[N-]C(Cl)=CC=3.O=[N+]([O-])O.[Cu+]?
Answer: survivor count (dose: 100.0 mg/kg/injection, schedule: Q04DX002 (ip), vehicle: suspension in saline): 0 of 6; survivor count (dose: 200.0 mg/kg/injection, schedule: Q04DX002 (ip), vehicle: suspension in saline): 0 of 6; survivor count (dose: 400.0 mg/kg/injection, schedule: Q04DX002 (ip), vehicle: suspension in saline): 0 of 6

Question: With OC1(c2ccc(F)cc2)CCNCC1 as the compound, how does the survivor count (dose: 240.0 mg/kg/injection, schedule: Q01DX005 (ip), vehicle: Klucel (hydroxypropylcellulose) (HPC)) read?
Answer: The survivor count was 0 of 6.

Question: O=P1(c2ccccc2)C=C(c2ccccc2)NC(c2ccccc2)=C1 was tested. Which survivor count [1] did it give?
Answer: The survivor count was 6 of 6.

Question: With CCOc1ccc2nc3cc(N=Nc4ccc(N(C)C)cc4)ccc3c(N)c2c1 as the compound, how does the survivor count (dose: 200.0 mg/kg/injection, schedule: Q01DX009 (ip), vehicle: saline with Tween-80) read?
Answer: The survivor count was 1 of 6.

Question: What does the source list for CN=C(NCCCOC)c1ccc(NC(=O)Nc2ccc(NC(=O)Nc3ccc(C(=NC)NCCCOC)cc3)cc2)cc1?
Answer: T/C (dose: 25.0 mg/kg/injection, schedule: Q01DX005 (ip), vehicle: Klucel (hydroxypropylcellulose) (HPC)): 131 % of control; survivor count (dose: 100.0 mg/kg/injection, schedule: Q01DX005 (ip), vehicle: Klucel (hydroxypropylcellulose) (HPC)): 6 of 6; survivor count [5]: 0 of 6

Question: How did the survivor count (dose: 100.0 mg/kg/injection, schedule: Q01DX009 (ip), vehicle: Klucel (hydroxypropylcellulose) (HPC)) turn out when CCN(c1ccccc1)S(=O)(=O)c1cc(N)ccc1C was run?
Answer: The survivor count was 6 of 6.

Question: With CN(C)C(=O)Sc1nnc(C(C)(C)C)o1 as the compound, how does the survivor count [5] read?
Answer: The survivor count was 3 of 5.

Question: With Clc1nc2nc(Cl)c(Cl)n2c(Cl)c1Cl as the compound, how does the survivor count (dose: 400.0 mg/kg/injection, schedule: Q04DX002 (ip), vehicle: saline with Tween-80) read?
Answer: The survivor count was 0 of 6.

Question: For CN(C)C(=O)c1cc(N2CC2)c([N+](=O)[O-])cc1[N+](=O)[O-], which T/C [6] is on record?
Answer: Its T/C is 125 % of control.

Question: What about the survivor count [7] of the same compound?
Answer: The survivor count was 3 of 6.

Question: And the survivor count (dose: 25.0 mg/kg/injection, schedule: Q01DX009 (ip), vehicle: saline with Tween-80)?
Answer: Its survivor count is 2 of 6.

Question: And the survivor count [8]?
Answer: The survivor count was 0 of 6.

Question: What about the survivor count (dose: 100.0 mg/kg/injection, schedule: Q01DX009 (ip), vehicle: saline with Tween-80) of the same compound?
Answer: Its survivor count is 0 of 6.

Question: How did the survivor count (dose: 240.0 mg/kg/injection, schedule: Q01DX005 (ip), vehicle: saline with Tween-80) turn out when Cc1ccc(C(=O)C[n+]2ccccc2)c(O)c1 was run?
Answer: Its survivor count is 2 of 6.

Question: ClC1=CC(Cl)=C2N=C(C(Cl)(Cl)Cl)N=C3N=C(C(Cl)(Cl)Cl)N=C1N32 was tested. Which survivor count (dose: 120.0 mg/kg/injection, schedule: Q01DX005 (ip), vehicle: Klucel + Tween-80) did it give?
Answer: The survivor count was 1 of 6.

Question: What about the survivor count (dose: 240.0 mg/kg/injection, schedule: Q01DX005 (ip), vehicle: Klucel + Tween-80) of the same compound?
Answer: Its survivor count is 0 of 6.

Question: With CNC[C@@H](O)c1ccc(O)c(O)c1 as the compound, how does the survivor count (dose: 6.25 mg/kg/injection, schedule: Q01DX009 (ip), vehicle: suspension in saline) read?
Answer: Its survivor count is 3 of 6.

Question: And the survivor count (dose: 12.5 mg/kg/injection, schedule: Q01DX009 (ip), vehicle: suspension in saline)?
Answer: Its survivor count is 1 of 6.

Question: What about the survivor count (dose: 25.0 mg/kg/injection, schedule: Q01DX009 (ip), vehicle: suspension in saline) of the same compound?
Answer: Its survivor count is 0 of 6.

Question: Which T/C [7] does the source give for CC(=O)OCC1OC(n2cnc3c(=S)nc(N)[nH]c32)C(OC(C)=O)C1OC(C)=O (stereo not given) here?
Answer: The T/C was 145 % of control.

Question: What about the T/C (dose: 25.0 mg/kg/injection, schedule: Q04DX003 (ip), vehicle: saline with Tween-80) of the same compound?
Answer: The T/C was 145 % of control.

Question: What about the T/C (dose: 50.0 mg/kg/injection, schedule: Q04DX003 (ip), vehicle: saline with Tween-80) of the same compound?
Answer: The T/C was 140 % of control.

Question: And the T/C (dose: 100.0 mg/kg/injection, schedule: Q04DX003 (ip), vehicle: saline with Tween-80)?
Answer: The T/C was 145 % of control.

Question: And the T/C (dose: 132.0 mg/kg/injection, schedule: Q04DX003 (ip), vehicle: saline with Tween-80)?
Answer: Its T/C is 127 % of control.

Question: What about the T/C (dose: 200.0 mg/kg/injection, schedule: Q04DX003 (ip), vehicle: saline with Tween-80) of the same compound?
Answer: The T/C was 127 and 145 % of control.

Question: And the survivor count (dose: 400.0 mg/kg/injection, schedule: Q04DX003 (ip), vehicle: saline with Tween-80)?
Answer: The survivor count was 5 of 6.

Question: For COC(=O)C1=C(C(=O)OC)P2(c3ccccc3)(c3ccccc3)N(c3ccccc3)C(=Nc3ccccc3)N2C1(c1ccccc1)c1ccccc1, which survivor count (dose: 50.0 mg/kg/injection, schedule: Q01DX005 (ip), vehicle: Klucel (hydroxypropylcellulose) (HPC)) is on record?
Answer: Its survivor count is 6 of 6.

Question: With CCOC(=O)C1CC(=O)C1C(=O)OCC (stereo not given) as the compound, how does the survivor count [8] read?
Answer: Its survivor count is 6 of 6.

Question: How did the survivor count (dose: 400.0 mg/kg/injection, schedule: Q04DX002 (ip), vehicle: Klucel (hydroxypropylcellulose) (HPC)) turn out when Cc1cccc(=O)[n-]1.Cc1cccc(=O)[n-]1.Cc1cccc(=O)[n-]1.Cc1cccc(=O)[n-]1.Cc1cccc(=O)[n-]1.Cc1cccc(=O)[n-]1.Cc1cccc(=[OH+])[n-]1.Cc1cccc(=[OH+])[n-]1.[Rh+2].[Rh+2].[Rh+2].[Rh+2] was run?
Answer: Its survivor count is 0 of 6.

Question: Which results are given for Cc1nn(-c2ccc(S(=O)(=O)[O-])cc2)c([O-])c1N=[N+](C)c1ccc(-c2ccc(N=Nc3ccc4c(S(=O)(=O)[O-])cc(S(=O)(=O)[O-])c(N)c4c3[O-])c([O-])c2)cc1[O-].[Cu+2].[Cu+2].[Na+]?
Answer: survivor count [6]: 6 of 6; survivor count (dose: 6.25 mg/kg/injection, schedule: Q01DX009 (ip), vehicle: saline with Tween-80): 6 of 6; survivor count [3]: 6 of 6; survivor count (dose: 50.0 mg/kg/injection, schedule: Q01DX009 (ip), vehicle: saline): 6 of 6; survivor count (dose: 100.0 mg/kg/injection, schedule: Q01DX009 (ip), vehicle: saline): 5 of 6; survivor count (dose: 200.0 mg/kg/injection, schedule: Q01DX009 (ip), vehicle: saline): 6 of 6

Question: Which results are given for CC(=O)OCC1=C(c2ccccc2)S(=O)(=O)c2ccccc2C1=O?
Answer: survivor count [4]: 1 of 6; survivor count [1]: 0 of 6; survivor count [2]: 0 of 6

Question: How did the survivor count (dose: 200.0 mg/kg/injection, schedule: Q01DX009 (ip), vehicle: Klucel (hydroxypropylcellulose) (HPC)) turn out when FC(F)(F)C1(C(F)(F)F)[O][Sb]([c]2ccc(Cl)cc2)([c]2ccc(Cl)cc2)([c]2ccc(Cl)cc2)[O]1 was run?
Answer: Its survivor count is 1 of 6.

Question: How did the survivor count (dose: 25.0 mg/kg/injection, schedule: Q01DX005 (ip), vehicle: saline) turn out when NC1C([O-])OC(CO)C(O)C1O.O=C1OC(C(O)CO)C([O-])=C1[OH2+].[Cu+2] (stereo not given) was run?
Answer: Its survivor count is 0 of 6.

Question: What about the survivor count (dose: 50.0 mg/kg/injection, schedule: Q01DX005 (ip), vehicle: saline) of the same compound?
Answer: The survivor count was 2 of 6.

Question: What about the survivor count (dose: 100.0 mg/kg/injection, schedule: Q01DX005 (ip), vehicle: saline) of the same compound?
Answer: The survivor count was 0 of 6.

Question: And the survivor count (dose: 200.0 mg/kg/injection, schedule: Q01DX005 (ip), vehicle: saline)?
Answer: The survivor count was 0 of 6.
